Laboratory results: article PMC7790824
Results are given in words; binding and its absence hold for the method and conditions named. In cells and extracts the contact can be indirect. Some entries that bind do so weakly or less than the wild type.

Biological target: T1, TAK1 (mouse (endogenous in primary cortical neurons)), Q62073
T1 chain: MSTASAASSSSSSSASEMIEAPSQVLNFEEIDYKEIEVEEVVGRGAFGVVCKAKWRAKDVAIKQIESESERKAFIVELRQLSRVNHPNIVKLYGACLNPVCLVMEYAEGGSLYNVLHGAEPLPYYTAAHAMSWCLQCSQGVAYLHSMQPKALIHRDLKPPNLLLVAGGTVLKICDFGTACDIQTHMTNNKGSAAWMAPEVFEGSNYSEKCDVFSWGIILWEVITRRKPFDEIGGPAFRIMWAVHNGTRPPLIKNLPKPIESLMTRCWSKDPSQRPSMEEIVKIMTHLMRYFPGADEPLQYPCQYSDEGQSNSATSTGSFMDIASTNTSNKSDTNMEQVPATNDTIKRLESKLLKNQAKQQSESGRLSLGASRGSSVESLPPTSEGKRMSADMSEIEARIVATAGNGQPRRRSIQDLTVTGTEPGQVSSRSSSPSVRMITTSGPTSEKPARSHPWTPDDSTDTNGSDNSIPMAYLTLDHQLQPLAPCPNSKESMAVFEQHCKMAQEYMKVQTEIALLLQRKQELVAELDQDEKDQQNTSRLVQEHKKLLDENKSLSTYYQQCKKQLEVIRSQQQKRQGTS
Assay: co-IP; SAH (hemoglobin-treated) primary neurons lysed with RIPA buffer; precleared extracts incubated with 1 ug of TRAF3 antibody, TAK1 antibody or normal mouse IgG and protein A/G-agarose beads at 4 °C overnight; blotted with TAK1 and TRAF3 antibodies
Settings: remark: other sources report otherwise

B1: TRAF3, Q60803 1-567 (protein)
chain: MESSKKMDAAGTLQPNPPLKLQPDRGAGSVLVPEQGGYKEKFVKTVEDKYKCEKCRLVLCNPKQTECGHRFCESCMAALLSSSSPKCTACQESIIKDKVFKDNCCKREILALQVYCRNEGRGCAEQLTLGHLLVHLKNECQFEELPCLRADCKEKVLRKDLRDHVEKACKYREATCSHCKSQVPMIKLQKHEDTDCPCVVVSCPHKCSVQTLLRSELSAHLSECVNAPSTCSFKRYGCVFQGTNQQIKAHEASSAVQHVNLLKEWSNSLEKKVSLLQNESVEKNKSIQSLHNQICSFEIEIERQKEMLRNNESKILHLQRVIDSQAEKLKELDKEIRPFRQNWEEADSMKSSVESLQNRVTELESVDKSAGQAARNTGLLESQLSRHDQMLSVHDIRLADMDLRFQVLETASYNGVLIWKIRDYKRRKQEAVMGKTLSLYSQPFYTGYFGYKMCARVYLNGDGMGKGTHLSLFFVIMRGEYDALLPWPFKQKVTLMLMDQGSSRRHLGDAFKPDPNSSSFKKPTGEMNIASGCPVFVAQTVLENGTYIKDDTIFIKVIVDTSDLPDP
binding: binds
